Assay results from the supplement of paper PMC7666118.
Some of the results follow.

The chains behind the UniProt entries cited, without tags or fusion partners. Where a name states a change or a piece, a line headed by the entry shows the natural chain unless it says otherwise.
UniProt P36871: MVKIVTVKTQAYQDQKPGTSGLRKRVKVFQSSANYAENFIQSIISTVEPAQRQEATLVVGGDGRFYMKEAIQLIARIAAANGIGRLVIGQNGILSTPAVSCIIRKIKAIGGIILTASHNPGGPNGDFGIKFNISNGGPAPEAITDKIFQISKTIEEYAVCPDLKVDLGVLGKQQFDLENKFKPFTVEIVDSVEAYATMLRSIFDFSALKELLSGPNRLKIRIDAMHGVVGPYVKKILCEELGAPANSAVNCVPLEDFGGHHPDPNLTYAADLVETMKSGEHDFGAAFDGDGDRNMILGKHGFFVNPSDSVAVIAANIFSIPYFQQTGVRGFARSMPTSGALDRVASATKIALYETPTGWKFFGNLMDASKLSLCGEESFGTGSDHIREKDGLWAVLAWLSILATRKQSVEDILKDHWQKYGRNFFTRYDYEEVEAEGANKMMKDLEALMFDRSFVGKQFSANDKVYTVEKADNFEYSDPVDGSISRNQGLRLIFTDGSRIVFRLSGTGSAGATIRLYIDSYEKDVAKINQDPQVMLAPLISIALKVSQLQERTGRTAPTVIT
UniProt O00330, whole entry: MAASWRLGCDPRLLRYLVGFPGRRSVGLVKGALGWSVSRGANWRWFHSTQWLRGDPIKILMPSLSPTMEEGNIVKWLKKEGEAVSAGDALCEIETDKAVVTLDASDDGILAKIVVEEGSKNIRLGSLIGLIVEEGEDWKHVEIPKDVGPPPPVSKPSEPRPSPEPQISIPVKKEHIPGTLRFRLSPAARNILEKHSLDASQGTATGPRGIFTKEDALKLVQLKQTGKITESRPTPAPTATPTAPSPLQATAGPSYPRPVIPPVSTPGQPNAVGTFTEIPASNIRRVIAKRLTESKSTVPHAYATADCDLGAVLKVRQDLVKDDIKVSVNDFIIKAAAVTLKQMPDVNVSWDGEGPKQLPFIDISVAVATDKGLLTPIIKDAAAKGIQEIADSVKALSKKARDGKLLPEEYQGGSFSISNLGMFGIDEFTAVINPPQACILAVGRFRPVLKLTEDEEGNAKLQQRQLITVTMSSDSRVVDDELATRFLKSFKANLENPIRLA
UniProt Q9BRX2, whole entry: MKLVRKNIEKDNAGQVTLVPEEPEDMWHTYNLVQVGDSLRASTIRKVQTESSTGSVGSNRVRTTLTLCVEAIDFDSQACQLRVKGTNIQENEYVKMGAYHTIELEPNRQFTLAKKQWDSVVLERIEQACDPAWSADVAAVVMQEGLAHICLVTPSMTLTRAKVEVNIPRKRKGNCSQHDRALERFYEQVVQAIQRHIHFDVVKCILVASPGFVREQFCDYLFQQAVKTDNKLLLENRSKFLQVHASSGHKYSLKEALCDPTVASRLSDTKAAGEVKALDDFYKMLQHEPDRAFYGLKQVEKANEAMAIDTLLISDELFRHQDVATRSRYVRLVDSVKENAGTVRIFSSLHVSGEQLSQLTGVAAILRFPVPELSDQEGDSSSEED
UniProt P17858: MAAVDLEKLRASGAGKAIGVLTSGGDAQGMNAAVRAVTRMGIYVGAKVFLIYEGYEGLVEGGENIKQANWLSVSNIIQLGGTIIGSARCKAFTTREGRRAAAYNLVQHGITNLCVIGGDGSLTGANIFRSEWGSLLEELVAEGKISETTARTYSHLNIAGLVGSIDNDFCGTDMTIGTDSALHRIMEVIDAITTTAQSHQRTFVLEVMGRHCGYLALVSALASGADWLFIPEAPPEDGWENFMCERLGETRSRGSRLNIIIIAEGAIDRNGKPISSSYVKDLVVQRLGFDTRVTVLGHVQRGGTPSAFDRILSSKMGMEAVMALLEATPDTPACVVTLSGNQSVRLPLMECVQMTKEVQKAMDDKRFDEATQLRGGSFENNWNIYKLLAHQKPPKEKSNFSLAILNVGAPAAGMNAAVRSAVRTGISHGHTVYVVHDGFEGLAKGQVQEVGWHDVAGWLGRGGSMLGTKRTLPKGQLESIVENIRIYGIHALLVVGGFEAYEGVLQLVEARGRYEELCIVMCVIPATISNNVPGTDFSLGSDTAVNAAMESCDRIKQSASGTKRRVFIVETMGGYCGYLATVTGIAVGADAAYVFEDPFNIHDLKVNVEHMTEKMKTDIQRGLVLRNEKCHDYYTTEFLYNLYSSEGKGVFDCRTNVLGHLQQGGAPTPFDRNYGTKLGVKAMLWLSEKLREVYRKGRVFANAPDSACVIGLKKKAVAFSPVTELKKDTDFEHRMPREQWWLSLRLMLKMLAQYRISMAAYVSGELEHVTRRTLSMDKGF
UniProt Q9NRX4: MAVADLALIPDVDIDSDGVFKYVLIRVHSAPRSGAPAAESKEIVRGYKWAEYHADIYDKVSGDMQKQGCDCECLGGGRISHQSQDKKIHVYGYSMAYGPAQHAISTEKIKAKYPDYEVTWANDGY
UniProt Q9UBV8: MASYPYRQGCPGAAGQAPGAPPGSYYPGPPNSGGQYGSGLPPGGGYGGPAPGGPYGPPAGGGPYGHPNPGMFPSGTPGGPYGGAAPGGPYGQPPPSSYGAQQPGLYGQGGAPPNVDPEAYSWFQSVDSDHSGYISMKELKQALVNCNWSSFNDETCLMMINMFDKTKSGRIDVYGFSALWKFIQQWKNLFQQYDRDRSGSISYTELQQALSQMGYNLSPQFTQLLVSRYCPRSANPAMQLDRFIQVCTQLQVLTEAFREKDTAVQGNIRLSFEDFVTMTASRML
UniProt Q15102: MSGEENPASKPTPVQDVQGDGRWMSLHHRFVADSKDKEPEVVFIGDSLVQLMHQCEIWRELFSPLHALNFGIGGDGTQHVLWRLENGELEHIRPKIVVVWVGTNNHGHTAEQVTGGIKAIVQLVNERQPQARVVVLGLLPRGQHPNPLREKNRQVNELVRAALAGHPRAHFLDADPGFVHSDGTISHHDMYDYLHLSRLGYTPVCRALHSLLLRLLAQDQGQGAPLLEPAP
UniProt P08567: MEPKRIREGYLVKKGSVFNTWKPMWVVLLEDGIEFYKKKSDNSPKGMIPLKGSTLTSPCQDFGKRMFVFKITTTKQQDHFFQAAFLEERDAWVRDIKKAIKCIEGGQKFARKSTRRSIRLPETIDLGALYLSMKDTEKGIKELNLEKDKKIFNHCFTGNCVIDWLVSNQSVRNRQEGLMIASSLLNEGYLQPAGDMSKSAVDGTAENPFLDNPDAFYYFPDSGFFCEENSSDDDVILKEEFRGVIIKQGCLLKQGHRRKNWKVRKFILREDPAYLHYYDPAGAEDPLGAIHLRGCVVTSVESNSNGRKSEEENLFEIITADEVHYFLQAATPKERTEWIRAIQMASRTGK
UniProt Q58A45: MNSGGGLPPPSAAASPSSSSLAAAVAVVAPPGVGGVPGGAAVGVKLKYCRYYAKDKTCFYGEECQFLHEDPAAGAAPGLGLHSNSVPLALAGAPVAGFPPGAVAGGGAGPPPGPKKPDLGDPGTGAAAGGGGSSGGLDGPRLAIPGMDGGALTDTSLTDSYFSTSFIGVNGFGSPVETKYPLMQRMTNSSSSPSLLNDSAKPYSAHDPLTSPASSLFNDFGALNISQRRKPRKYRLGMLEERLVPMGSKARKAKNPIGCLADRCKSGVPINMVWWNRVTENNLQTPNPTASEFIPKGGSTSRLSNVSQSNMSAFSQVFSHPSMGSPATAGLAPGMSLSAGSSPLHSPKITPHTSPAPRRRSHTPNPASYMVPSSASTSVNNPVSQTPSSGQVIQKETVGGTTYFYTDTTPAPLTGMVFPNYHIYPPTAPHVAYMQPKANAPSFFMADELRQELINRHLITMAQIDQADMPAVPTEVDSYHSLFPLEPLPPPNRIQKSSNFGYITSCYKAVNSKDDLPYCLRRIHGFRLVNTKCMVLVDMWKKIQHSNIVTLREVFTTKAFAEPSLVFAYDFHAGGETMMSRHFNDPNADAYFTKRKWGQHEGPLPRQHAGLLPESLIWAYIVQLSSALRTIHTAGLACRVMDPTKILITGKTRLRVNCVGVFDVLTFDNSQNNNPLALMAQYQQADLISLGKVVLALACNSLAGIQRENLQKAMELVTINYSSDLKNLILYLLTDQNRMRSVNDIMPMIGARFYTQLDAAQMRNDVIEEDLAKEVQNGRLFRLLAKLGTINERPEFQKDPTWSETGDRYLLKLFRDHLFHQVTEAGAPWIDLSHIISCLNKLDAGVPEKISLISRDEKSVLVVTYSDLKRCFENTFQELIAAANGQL

These targets were tested with COc1ccc(Cn2ccc3cc(C)c(C(=O)NO)cc32)cc1 (assay: dose-dependent thermal stabilisation call (2D-TPP, DLPTP, 10% FDR) (binary (1 = stabilised)); higher = stabilised by the compound). Conditions: system: HL-60 intact cells; concentration range 0.04-10 µM.
Protocol: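 2D thermal proteome profiling in intact HL-60 cells treated with BRD-3811 (0, 0.04, 0.29, 2, 10 uM) for 90 min at 37 C, then heated 3 min at one of 12 temperatures (42-63.9 C). Soluble protein was quantified by TMT10 MS. The value is the DLPTP call of the paper: dose-dependent thermal stabilisation over all temperatures at 10% FDR (F-test of a dose-response against a flat model); one experiment, one call per tested protein.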

| Target | dose-dependent thermal stabilisation call |
| --- | --- |
| PGM1 (UniProt P36871) | inactive: 0 |
| PDHX (UniProt O00330) | inactive: 0 |
| PELO (UniProt Q9BRX2) | inactive: 0 |
| PFKL (UniProt P17858) | inactive: 0 |
| PHPT1 (UniProt Q9NRX4) | inactive: 0 |
| PEF1 (UniProt Q9UBV8) | inactive: 0 |
| PAFAH1B3 (UniProt Q15102) | inactive: 0 |
| PLEK (UniProt P08567) | inactive: 0 |
| PAN3 (UniProt Q58A45) | inactive: 0 |
